61 compounds from PubChem BioAssay AID493014 (National Center for Advancing Translational Sciences (NCATS), 2011) can be followed below.

This is one part of the list. Shown are side measurements of this screen, not its main read-out; they come without a call. Most of these compounds were active or inconclusive in the main read-out, so they are no random draw. Words in brackets tell the shape of the fitted curve; partial curves, single points and poor fits give uncertain potencies.

The assay is described as follows: qHTS Assay to Find Inhibitors of Chronic Active B-Cell Receptor Signaling. The following applies: ABC-DLBCL IkBa-CBG/CBR reporter, luminescence ratio (green luciferase fused to IkBa over red control in TMD8 lymphoma cells), 4 h. In short, it runs like this: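 Concentration-response series (up to 46 uM) were applied to TMD8 dual-reporter cells for 4 h at 37C with doxycycline. Green/red ratio, after filter-overlap correction, defined %Activity; red signal alone was normalised to basal cells and zero luminescence.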
In general terms: In qHTS, concentration-response curves come from the screen itself.

Setting [1] is: measured here: CBR red luminescence, cell number.
[2] abbreviates: measured here: IkBa-CBG green luminescence.

Usually AC50 stands for the concentration giving half of the maximal activity seen. Turning to `O=C(C1CC1)N1CCc2sccc2C1c1ccc(Cl)cc1` (stereo unspecified), the AC50 under setting [1] is 5.62 µM [rising, single point].

Take `CC(c1cccnc1)N(CCN(C)C)C(=O)Nc1ccc(Cl)cc1` (stereo unspecified): under setting [1], the AC50 is 4.11 µM [rising, full curve, poor fit].

Regarding `COc1ccc(Cl)cc1C(=O)Nc1ccc(NC(=O)c2ccco2)cc1`, the concentration at half-maximal activity (AC50) under setting [1] was 5.17 µM [rising, partial curve, poor fit].

`COc1ccc2nc3ccccc3nc2c1N`: the AC50 is, setting by setting: under setting [1], 11.2 µM [falling, partial curve, poor fit]; under setting [2], 11.2 µM [rising, partial curve, poor fit].

On to `C[C@@H]1[C@H]2CCCC[C@H]2CN(C(=O)OC(C)(C)C)[C@@H]1c1cn(Cc2ccccc2)c2ccc(F)cc12`, for which the AC50 under setting [1] is 29.1 µM [rising, single point] and the AC50 under setting [2] is 18.4 µM [falling, single point].

Regarding `COC(=O)c1ccc(CSc2nc3ccccc3s2)o1`, the AC50 under setting [1] was 8.2 µM [rising, partial curve, poor fit].

On to `COc1ccc(C(=O)Nc2c(Cl)cc(Cl)cc2C(=O)N2CCC(C)CC2)cc1`, for which, under setting [1], the AC50 was 4.11 µM [rising, full curve].

As to `O=S(=O)(NCCc1ccccc1)c1ccc(Br)cc1`, under setting [1], the AC50 was 17.8 µM [rising, partial curve, poor fit].

With `O=C(COC(=O)c1ccc(O)cc1)Nc1ccc(Cl)cc1`, the AC50 under setting [1] is 25.1 µM [falling, single point].

As for `Cc1ccc(-n2nc(C)c(C(=O)Nc3cccc(C(=O)NC4CC4)c3)n2)c(C)c1`, the AC50 under setting [1] was 20.6 µM [falling, partial curve].

As for `CCn1c(=N)n(CC(=O)c2ccc(OC)c(OC)c2)c2ccccc21`, the AC50 under setting [1] was 0.082 µM [rising, full curve, poor fit].

`Cc1c(C(=O)N2CCN(c3ccc(F)cc3)CC2)sc2ncnc(N3CCN(c4ccccn4)CC3)c12`: the AC50 under setting [1] was 25.1 µM [falling, single point].

`Cc1ccc(/C=N/n2c(-c3ccccc3)n[nH]c2=S)cc1`: the AC50 under setting [1] was 20 µM [rising, partial curve, poor fit].

In the case of `NC(=O)c1ccsc1NC(=O)COC(=O)Cc1ccsc1`, the AC50 under setting [1] was 29.1 µM [falling, single point].

As to `CC(=O)Nc1c(-c2ccccc2)nc2ncccn12`, the AC50 under setting [1] is 18.4 µM [falling, partial curve, poor fit].

With `CCOc1ccc(NC(=O)CC2C(=O)N(c3cccc(OC)c3)C(=O)N2CCOC)cc1` (stereo unspecified), under setting [1], the AC50 is 0.112 µM [falling, full curve, poor fit].

For `CC(C)Oc1ccccc1C1CC(=O)Nc2cc3c(cc21)OCO3` (stereo unspecified), the concentration at half-maximal activity (AC50) runs as follows: under setting [1], 35.5 µM [rising, single point]; under setting [2], 15.8 µM [falling, single point].

For `CCCOc1ccc(C(=O)Nc2ccc(S(=O)(=O)Nc3onc(C)c3C)cc2)cc1`, under setting [1], the AC50 is 35.5 µM [falling, single point].

For the compound `O=C(c1ccccc1)c1nccc2ccccc12`, the AC50 under setting [1] is 16.4 µM [rising, partial curve, poor fit].

As to `Cc1noc(C)c1COC(=O)CCc1nc2ccccc2c(=O)[nH]1`, the AC50 under setting [1] was 11.2 µM [falling, partial curve].

For `COc1ccc(CNCCS(=O)(=O)NC2CCCC2)cc1`, the AC50 under setting [1] is 4.11 µM [rising, single point].

In the case of `CNC(=O)C12N=CNN=C1N(C)C(=O)N2C` (stereo unspecified), the AC50 under setting [1] is 11.2 µM [rising, partial curve].

On to `CCOc1cccc(OCCOc2ccccc2[N+](=O)[O-])c1`, for which the AC50 under setting [1] is 6.31 µM [rising, full curve, poor fit].

In the case of `COc1cc2c(cc1OC)C(C1C(=O)CC(C)CC1=O)N(C(=O)CCl)CC2` (stereo unspecified), under setting [1], the AC50 is 18.4 µM [rising, single point].

In the case of `CCCCCCc1ccc(-c2ncc(N)cn2)cc1`, the concentration at half-maximal activity (AC50) under setting [1] is 0.651 µM [rising, partial curve, poor fit].

With `COc1ccc(S(=O)(=O)NC(CC(=O)NCc2ccco2)C(C)C)cc1` (stereo unspecified), the AC50 under setting [1] is 29.1 µM [rising, single point].

For `Cc1ccc(S(=O)(=O)N2CCN(C(=O)c3ccc(-n4cncn4)c([N+](=O)[O-])c3)CC2)cc1C`, the AC50 is, setting by setting: under setting [1], 23.1 µM [falling, partial curve, poor fit]; under setting [2], 20.6 µM [rising, partial curve, poor fit].

With `COC(=O)/C=C1\N/C(=N\c2nc(C)cc(C)n2)N(c2ccc(Cl)cc2)C1=O`, the AC50 under setting [1] was 7.94 µM [falling, partial curve, poor fit].

As to `CN1C(C(=O)NCc2ccco2)=CC(c2ccc(F)cc2)=NS1(=O)=O`, under setting [1], the AC50 was 10 µM [falling, partial curve].

As for `Fc1ccccc1NC(=S)N1CCN(c2ccccn2)CC1`, under setting [1], the AC50 is 2.59 µM [rising, full curve].

In the case of `COc1ccc(C(=O)Nc2cccc(-c3ccc(N4CCOCC4)nn3)c2)cc1OC`, the AC50 under setting [1] was 20.6 µM [falling, single point].

For `Cc1cccc(C)c1N(CC(=O)NCc1ccco1)C(=O)CNS(=O)(=O)c1ccc(F)cc1`, the AC50 under setting [1] is 35.5 µM [falling, partial curve, poor fit].

`CC(=O)c1ccccc1NC(=O)COC(=O)CCCN1C(=O)c2cccc3cccc(c23)C1=O`: under setting [1], the concentration at half-maximal activity (AC50) is 29.1 µM [rising, single point].

`Clc1cccc(-n2ncc3c(Nc4ccc5c(c4)OCCO5)ncnc32)c1`: the AC50 under setting [1] was 5.62 µM [falling, full curve, poor fit].

As to `COC(=O)c1ccc(NC(=S)NC2CC3CCC2C3)cc1` (stereo unspecified), the AC50 under setting [1] was 6.51 µM [rising, single point].

Take `Cc1c(C(=O)Nc2c(F)cccc2F)sc2ncn(CC(=O)N3CCCCC3)c(=O)c12`: under setting [1], the AC50 is 7.94 µM [falling, partial curve, poor fit].

With `Cc1ccccc1C(=O)NCC(=O)NNC(=O)c1cccc(Cl)c1`, the AC50 under setting [1] is 6.51 µM [rising, single point].

Regarding `O=C(CCCc1ccccc1)Nc1ccnn1C1CCN(Cc2ccccc2)CC1`, the AC50 under setting [1] is 2.82 µM [rising, partial curve, poor fit].

As to `CC(=O)Nc1ccc2nc(NC(=O)c3ccc([N+](=O)[O-])o3)sc2c1`, the AC50 under setting [1] was 3.55 µM [falling, single point].

Turning to `O=C1Nc2ccccc2/C1=N\c1sc2c(c1C(=O)Nc1ccccc1)CCCC2`, under setting [1], the AC50 is 5.17 µM [falling, full curve].

For `Cc1[nH]n(-c2ccc(F)cc2)c(=O)c1C=Nc1ccc(S(=O)(=O)N(C)C)cc1`, the AC50 under setting [1] is 7.31 µM [falling, partial curve, poor fit].

Regarding `COCCNC(=O)C(c1ccc(C)cc1)N(C(=O)CCC(=O)Nc1ccccn1)C1CCCCC1` (stereo unspecified), the AC50 under setting [1] was 35.5 µM [rising, single point].

Turning to `Cc1cccc(CCNC(=O)CCCOc2cc(=O)n(C)c3ccccc23)c1`, under setting [1], the AC50 is 31.6 µM [rising, partial curve, poor fit].

On to `COc1ccc(OC)c(NC(=O)c2c(NCc3ccc(N(C)C)cc3)sc3c2CCCC3)c1`, for which the AC50 under setting [1] was 7.08 µM [rising, full curve].

As for `O=C(Nc1nc2c(Cl)cccc2s1)c1ccc(Br)o1`, the AC50 under setting [1] was 4.11 µM [falling, partial curve, poor fit].

As to `COc1ccc(OCC(=O)NCCNC(=O)c2cccnc2)cc1`, under setting [1], the AC50 was 3.55 µM [falling, single point].

As for `Cc1ccc(S(=O)(=O)N2CCC(C(=O)OC(C)C(=O)NC(N)=O)CC2)cc1C` (stereo unspecified), the AC50 under setting [1] was 0.708 µM [falling, partial curve, poor fit].

Turning to `C=CCOc1ccc(Br)cc1/C=N/O`, under setting [1], the AC50 was 7.31 µM [rising, partial curve, poor fit].

Turning to `Cc1ccc([N+](=O)[O-])cc1NC(=O)Cc1cccs1`, the AC50 under setting [1] is 35.5 µM [falling, single point].

For the compound `CS(=O)(=O)Nc1ccccc1C(=O)Nc1cccc(Cl)c1`, the AC50 under setting [1] is 16.4 µM [falling, single point].

Turning to `Cc1ccc(NC(=O)NC2CCN(S(=O)(=O)c3ccc(F)cc3)CC2)cc1`, under setting [1], the AC50 was 0.231 µM [falling, full curve, poor fit].

Take `CCOC(=O)CS(=O)(=O)c1nc(-c2ccccc2)cc(C(F)(F)F)n1`: the AC50 by setting is: under setting [1], 6.31 µM [falling, partial curve]; under setting [2], 14.1 µM [rising, partial curve, poor fit].

With `COc1ccc([C@@H]2[C@@H]3C(=O)N(C(C)(C)C)C(=O)[C@@H]3[C@]3(Cc4ccc(Cl)cc4)C(=O)N(c4ccc(C)cc4)C(=O)N23)cc1`, the AC50 under setting [1] is 16.4 µM [falling, partial curve].

Turning to `COc1ccc(CCn2c(-c3cccc([N+](=O)[O-])c3)nc3nc4ccccc4nc32)cc1OC`, the AC50 under setting [1] is 1.84 µM [rising, full curve].

With `C/C(=N\NC(=O)c1ccc2c(c1)OCO2)c1ccc2c(c1)OCO2`, under setting [1], the AC50 is 6.31 µM [falling, partial curve, poor fit].

Turning to `CCCCNc1c(-c2ccc(Sc3ccc(OC)cc3)cc2)nc2cc(C)ccn12`, the AC50 under setting [1] was 9.2 µM [falling, single point].

For `O=C(Nc1nnc(S(=O)(=O)N2CCCCCC2)s1)c1ccccc1`, the AC50 under setting [1] is 12.6 µM [rising, partial curve].

Turning to `COc1ccc(C(=O)N2CCc3cc(OC)c(OC)cc3C2c2ccc(OC)c(OC)c2)cc1OC` (stereo unspecified), the AC50 under setting [1] is 0.316 µM [rising, full curve, poor fit].

For `CCn1ccnc1CN(C)Cc1cn(-c2cccc(C)c2)nc1-c1cccc(F)c1`, under setting [1], the AC50 was 20 µM [falling, partial curve, poor fit].

As for `Cc1cccc(NS(=O)(=O)Cc2ccccc2)c1C`, the AC50 under setting [1] is 12.6 µM [rising, single point].

For the compound `COc1ccc(S(=O)(=O)N2CCOCC2)cc1C(=O)N1CCCCC1`, under setting [1], the AC50 is 0.251 µM [rising, full curve].
